PubChem BioAssay AID1224830 – NIAID, 2016
Shown is a random part of about 18,000 reagents tested. About 2,900 of all reagents (16%) were called active. 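Calls are made per well; low scores hint the gene aids the LPS response, high scores that it dampens it.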 Repeated entries: four replicate wells of each siRNA pool. Reagent sequences are not shown.

Aim: 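Host factors that control LPS-induced TNF expression in human macrophages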 (primary screen)
Cell system: human THP-1 monocytic leukaemia cells, TNF dual-luciferase reporter clone, PMA-differentiated to macrophage-like cells
Knock-down reagent: siRNA pool against human genes, 50 nM
Timing: LPS for 4 h, given about 3 days after siRNA transfection
Challenge: bacterial LPS (TLR4 ligand), 10 ng/ml
Read-out: 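Ratio of firefly to renilla light, scaled to the plate median and expressed as a robust z-score per replicate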
Scale: TNF reporter robust z-score: higher = stronger TNF reporter response to LPS
Call rule: 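a well is active when its z-score exceeds 2.8 or falls below -1.5; control wells carry no call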

For KLRD1, the entry reads TNF reporter robust z-score -1.16; inactive.
With knock-down of KLRD1 the results were TNF reporter robust z-score 0.91; inactive.
For KLRD1 the deposit lists TNF reporter robust z-score 0.58; inactive.
KLRD1 gave TNF reporter robust z-score 1.4; inactive.
After knock-down of MMP14, the record shows TNF reporter robust z-score 0.62; inactive.
After knock-down of MMP14 the results were TNF reporter robust z-score 0.72; inactive.
After knock-down of MMP14, the screen gave TNF reporter robust z-score -0.19; inactive.
After knock-down of MMP14, the record shows TNF reporter robust z-score -0.06; inactive.
After knock-down of DDX59 the results were TNF reporter robust z-score 1.69; inactive.
Against DDX59, the values are TNF reporter robust z-score 3.22; active.
For DDX59, the values are TNF reporter robust z-score 1.08; inactive.
With knock-down of DDX59, the record shows TNF reporter robust z-score 2.58; inactive.
With knock-down of ZNF75D, the record shows TNF reporter robust z-score -0.27; inactive.
Knock-down of ZNF75D came out at: TNF reporter robust z-score 0.63; inactive.
ZNF75D showed TNF reporter robust z-score 1.11; inactive.
Silencing of ZNF75D gave: TNF reporter robust z-score 0.56; inactive.
Depletion of DEFB113 gave: TNF reporter robust z-score -1.26; inactive.
After knock-down of DEFB113, the record shows TNF reporter robust z-score -0.41; inactive.
DEFB113 scored TNF reporter robust z-score -0.37; inactive.
Knock-down of DEFB113 came out at: TNF reporter robust z-score -0.61; inactive.
Against FRS2 the deposit lists TNF reporter robust z-score -0.11; inactive.
Against FRS2 the deposit lists TNF reporter robust z-score -0.17; inactive.
Knock-down of FRS2 came out at: TNF reporter robust z-score -1.39; inactive.
Depletion of FRS2 gave: TNF reporter robust z-score -1.41; inactive.
After knock-down of RALYL the results were TNF reporter robust z-score 0.41; inactive.
Knock-down of RALYL came out at: TNF reporter robust z-score 0.64; inactive.
With knock-down of RALYL, the screen gave TNF reporter robust z-score 0.32; inactive.
Knock-down of RALYL gave: TNF reporter robust z-score -0.35; inactive.
After knock-down of PTH, the record shows TNF reporter robust z-score 0.11; inactive.
After knock-down of PTH, the screen gave TNF reporter robust z-score -0.01; inactive.
Against PTH the deposit lists TNF reporter robust z-score -0.46; inactive.
Against PTH, the values are TNF reporter robust z-score -0.07; inactive.
PCNX4 showed TNF reporter robust z-score 0.46; inactive.
PCNX4 showed TNF reporter robust z-score 0.22; inactive.
For PCNX4 the deposit lists TNF reporter robust z-score 0.05; inactive.
Depletion of PCNX4 resulted in: TNF reporter robust z-score 0.15; inactive.
COPG1 scored TNF reporter robust z-score -0.87; inactive.
With knock-down of COPG1, the record shows TNF reporter robust z-score -0.4; inactive.
With knock-down of COPG1, the screen gave TNF reporter robust z-score -1.27; inactive.
Against COPG1, the entry reads TNF reporter robust z-score -0.39; inactive.
Silencing of ACRBP came out at: TNF reporter robust z-score -0.95; inactive.
Silencing of ACRBP came out at: TNF reporter robust z-score -0.24; inactive.
For ACRBP, the entry reads TNF reporter robust z-score -0.72; inactive.
ACRBP scored TNF reporter robust z-score 1.04; inactive.
With knock-down of MINDY2, the record shows TNF reporter robust z-score 0.91; inactive.
Silencing of MINDY2 gave: TNF reporter robust z-score 0.22; inactive.
With knock-down of MINDY2, the record shows TNF reporter robust z-score -1.03; inactive.
Silencing of MINDY2 resulted in: TNF reporter robust z-score -0.66; inactive.
For SLC5A9, the entry reads TNF reporter robust z-score 0.76; inactive.
SLC5A9 scored TNF reporter robust z-score 0.93; inactive.
Knock-down of SLC5A9 came out at: TNF reporter robust z-score 0.27; inactive.
Knock-down of SLC5A9 came out at: TNF reporter robust z-score 0.23; inactive.
Depletion of NTM came out at: TNF reporter robust z-score 1.25; inactive.
NTM gave TNF reporter robust z-score 0.4; inactive.
For NTM, the values are TNF reporter robust z-score 2.17; inactive.
After knock-down of NTM the results were TNF reporter robust z-score -0.23; inactive.
After knock-down of SLC45A4 the results were TNF reporter robust z-score 1.29; inactive.
SLC45A4 gave TNF reporter robust z-score 0.86; inactive.
With knock-down of SLC45A4, the screen gave TNF reporter robust z-score 1.43; inactive.
With knock-down of SLC45A4, the record shows TNF reporter robust z-score 1.16; inactive.

Active calls (from the list above):
DDX59: TNF reporter robust z-score = 3.22; Outcome = active
